This note sets out measurements from PMC4742980.

By UniProt entry, the sequences of proteins in these tests, tags left out.
UniProt P11387: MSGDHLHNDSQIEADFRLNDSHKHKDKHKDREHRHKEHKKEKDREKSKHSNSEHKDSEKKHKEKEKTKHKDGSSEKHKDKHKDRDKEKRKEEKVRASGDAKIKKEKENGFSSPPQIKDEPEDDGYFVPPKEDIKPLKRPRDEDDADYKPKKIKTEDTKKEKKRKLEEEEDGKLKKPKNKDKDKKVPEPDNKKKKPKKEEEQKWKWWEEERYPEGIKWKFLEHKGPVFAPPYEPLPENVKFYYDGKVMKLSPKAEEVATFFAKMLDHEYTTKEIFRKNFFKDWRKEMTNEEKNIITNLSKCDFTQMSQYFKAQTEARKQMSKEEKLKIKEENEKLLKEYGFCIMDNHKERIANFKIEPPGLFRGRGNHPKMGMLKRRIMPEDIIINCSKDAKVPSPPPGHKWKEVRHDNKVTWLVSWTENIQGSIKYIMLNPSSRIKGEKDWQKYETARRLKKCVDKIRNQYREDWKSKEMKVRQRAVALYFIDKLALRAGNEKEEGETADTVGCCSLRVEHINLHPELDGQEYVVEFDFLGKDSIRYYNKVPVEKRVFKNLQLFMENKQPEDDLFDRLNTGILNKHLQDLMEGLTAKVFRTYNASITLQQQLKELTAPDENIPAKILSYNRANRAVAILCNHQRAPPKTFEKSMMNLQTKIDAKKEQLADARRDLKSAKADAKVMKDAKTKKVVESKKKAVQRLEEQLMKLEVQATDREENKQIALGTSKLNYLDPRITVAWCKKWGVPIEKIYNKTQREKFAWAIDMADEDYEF
UniProt Q9JLV6: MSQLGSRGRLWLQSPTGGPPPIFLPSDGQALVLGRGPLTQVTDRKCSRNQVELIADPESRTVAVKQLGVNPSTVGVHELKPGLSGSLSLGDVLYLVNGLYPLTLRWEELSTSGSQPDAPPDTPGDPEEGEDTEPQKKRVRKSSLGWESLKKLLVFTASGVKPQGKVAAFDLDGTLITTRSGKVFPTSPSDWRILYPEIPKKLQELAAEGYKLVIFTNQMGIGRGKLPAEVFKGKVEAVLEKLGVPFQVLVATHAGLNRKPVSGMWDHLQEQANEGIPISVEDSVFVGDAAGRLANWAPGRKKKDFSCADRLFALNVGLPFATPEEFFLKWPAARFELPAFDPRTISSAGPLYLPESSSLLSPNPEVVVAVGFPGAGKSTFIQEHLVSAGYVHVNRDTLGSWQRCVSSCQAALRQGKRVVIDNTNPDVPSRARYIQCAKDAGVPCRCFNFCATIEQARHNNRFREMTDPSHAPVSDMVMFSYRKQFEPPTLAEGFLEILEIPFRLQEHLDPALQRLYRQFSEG
UniProt Q6PDM2: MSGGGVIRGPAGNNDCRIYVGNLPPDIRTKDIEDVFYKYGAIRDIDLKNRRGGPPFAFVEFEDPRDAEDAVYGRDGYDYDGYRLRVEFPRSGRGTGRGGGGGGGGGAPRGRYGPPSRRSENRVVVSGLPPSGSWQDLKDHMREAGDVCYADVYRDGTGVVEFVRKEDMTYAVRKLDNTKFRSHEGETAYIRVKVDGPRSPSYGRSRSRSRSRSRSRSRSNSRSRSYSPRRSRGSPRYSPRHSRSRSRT
UniProt P70372: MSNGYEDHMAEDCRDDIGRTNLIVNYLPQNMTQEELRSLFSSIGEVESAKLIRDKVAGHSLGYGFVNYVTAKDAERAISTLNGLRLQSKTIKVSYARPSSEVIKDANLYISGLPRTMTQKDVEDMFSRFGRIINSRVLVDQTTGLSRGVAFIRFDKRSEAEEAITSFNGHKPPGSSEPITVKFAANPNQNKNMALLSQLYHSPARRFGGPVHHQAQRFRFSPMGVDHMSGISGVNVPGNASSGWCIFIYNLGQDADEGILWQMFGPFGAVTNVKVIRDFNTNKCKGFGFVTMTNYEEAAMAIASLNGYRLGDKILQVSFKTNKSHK
UniProt Q8BJ37: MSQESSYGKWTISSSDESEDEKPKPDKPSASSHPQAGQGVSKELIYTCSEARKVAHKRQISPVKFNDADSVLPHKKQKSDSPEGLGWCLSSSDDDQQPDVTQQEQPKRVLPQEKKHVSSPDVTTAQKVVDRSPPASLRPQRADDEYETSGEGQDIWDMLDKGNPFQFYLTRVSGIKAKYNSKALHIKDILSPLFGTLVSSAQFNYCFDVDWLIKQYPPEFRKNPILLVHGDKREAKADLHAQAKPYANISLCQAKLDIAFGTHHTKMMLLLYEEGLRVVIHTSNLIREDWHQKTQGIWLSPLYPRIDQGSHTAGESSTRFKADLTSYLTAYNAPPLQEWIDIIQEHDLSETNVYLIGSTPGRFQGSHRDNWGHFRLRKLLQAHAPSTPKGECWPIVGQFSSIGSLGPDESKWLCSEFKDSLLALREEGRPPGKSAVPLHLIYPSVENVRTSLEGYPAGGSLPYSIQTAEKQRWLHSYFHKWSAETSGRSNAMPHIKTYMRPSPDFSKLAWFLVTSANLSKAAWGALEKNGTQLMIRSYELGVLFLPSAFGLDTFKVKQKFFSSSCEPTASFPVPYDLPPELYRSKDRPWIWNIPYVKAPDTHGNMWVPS
UniProt P97496: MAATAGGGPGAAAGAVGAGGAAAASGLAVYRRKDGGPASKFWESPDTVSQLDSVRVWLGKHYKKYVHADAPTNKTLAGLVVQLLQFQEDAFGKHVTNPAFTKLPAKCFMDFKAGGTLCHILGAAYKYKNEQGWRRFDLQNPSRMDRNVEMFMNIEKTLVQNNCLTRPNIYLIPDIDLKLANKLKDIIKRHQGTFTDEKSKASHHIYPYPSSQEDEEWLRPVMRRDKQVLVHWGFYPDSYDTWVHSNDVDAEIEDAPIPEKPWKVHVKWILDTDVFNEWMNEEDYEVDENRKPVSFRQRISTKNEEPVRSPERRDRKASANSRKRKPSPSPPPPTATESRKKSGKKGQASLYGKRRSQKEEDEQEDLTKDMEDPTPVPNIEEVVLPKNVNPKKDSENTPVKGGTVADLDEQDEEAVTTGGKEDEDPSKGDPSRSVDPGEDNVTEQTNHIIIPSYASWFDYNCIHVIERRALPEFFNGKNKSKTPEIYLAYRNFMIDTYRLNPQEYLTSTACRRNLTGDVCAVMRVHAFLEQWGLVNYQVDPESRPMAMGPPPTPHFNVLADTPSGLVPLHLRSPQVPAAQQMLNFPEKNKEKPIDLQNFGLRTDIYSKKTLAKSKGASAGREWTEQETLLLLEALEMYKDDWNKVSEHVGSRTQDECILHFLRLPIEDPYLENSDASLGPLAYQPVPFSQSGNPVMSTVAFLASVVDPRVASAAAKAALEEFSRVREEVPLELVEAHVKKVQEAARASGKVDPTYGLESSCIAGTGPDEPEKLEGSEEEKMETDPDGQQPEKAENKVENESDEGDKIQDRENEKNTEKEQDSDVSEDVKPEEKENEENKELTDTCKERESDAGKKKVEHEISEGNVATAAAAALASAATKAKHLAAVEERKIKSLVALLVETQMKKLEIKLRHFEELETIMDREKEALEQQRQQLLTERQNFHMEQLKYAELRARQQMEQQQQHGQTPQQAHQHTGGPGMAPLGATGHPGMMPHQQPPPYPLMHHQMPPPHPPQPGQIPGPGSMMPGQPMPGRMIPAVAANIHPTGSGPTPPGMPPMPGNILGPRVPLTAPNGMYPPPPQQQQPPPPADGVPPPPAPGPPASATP
UniProt P11103: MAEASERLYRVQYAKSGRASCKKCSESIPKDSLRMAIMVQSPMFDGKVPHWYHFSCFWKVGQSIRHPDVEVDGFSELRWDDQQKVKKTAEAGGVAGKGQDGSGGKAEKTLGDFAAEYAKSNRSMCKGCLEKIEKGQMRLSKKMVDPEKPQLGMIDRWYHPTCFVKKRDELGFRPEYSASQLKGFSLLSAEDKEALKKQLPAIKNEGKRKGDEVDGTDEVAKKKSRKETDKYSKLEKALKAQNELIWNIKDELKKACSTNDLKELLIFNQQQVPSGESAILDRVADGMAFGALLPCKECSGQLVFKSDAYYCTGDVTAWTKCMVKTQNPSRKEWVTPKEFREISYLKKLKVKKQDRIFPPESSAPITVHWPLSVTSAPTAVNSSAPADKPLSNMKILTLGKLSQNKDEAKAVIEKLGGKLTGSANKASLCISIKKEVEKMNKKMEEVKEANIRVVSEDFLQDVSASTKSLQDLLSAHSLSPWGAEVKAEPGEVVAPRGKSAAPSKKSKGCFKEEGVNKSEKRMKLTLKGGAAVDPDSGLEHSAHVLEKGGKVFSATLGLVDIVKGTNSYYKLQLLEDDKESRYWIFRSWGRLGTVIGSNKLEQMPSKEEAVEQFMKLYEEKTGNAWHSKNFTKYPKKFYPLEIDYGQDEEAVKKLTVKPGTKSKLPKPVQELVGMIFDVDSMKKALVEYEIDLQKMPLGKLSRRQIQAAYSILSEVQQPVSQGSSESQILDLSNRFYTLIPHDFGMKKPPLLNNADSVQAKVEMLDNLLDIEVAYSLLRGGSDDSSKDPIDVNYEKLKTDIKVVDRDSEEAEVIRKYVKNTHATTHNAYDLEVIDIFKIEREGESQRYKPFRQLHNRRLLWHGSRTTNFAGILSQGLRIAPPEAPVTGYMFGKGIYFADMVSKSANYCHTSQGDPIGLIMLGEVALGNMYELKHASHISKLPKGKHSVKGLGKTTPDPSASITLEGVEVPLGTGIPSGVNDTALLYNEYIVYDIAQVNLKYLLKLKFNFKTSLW
UniProt Q6PDQ2: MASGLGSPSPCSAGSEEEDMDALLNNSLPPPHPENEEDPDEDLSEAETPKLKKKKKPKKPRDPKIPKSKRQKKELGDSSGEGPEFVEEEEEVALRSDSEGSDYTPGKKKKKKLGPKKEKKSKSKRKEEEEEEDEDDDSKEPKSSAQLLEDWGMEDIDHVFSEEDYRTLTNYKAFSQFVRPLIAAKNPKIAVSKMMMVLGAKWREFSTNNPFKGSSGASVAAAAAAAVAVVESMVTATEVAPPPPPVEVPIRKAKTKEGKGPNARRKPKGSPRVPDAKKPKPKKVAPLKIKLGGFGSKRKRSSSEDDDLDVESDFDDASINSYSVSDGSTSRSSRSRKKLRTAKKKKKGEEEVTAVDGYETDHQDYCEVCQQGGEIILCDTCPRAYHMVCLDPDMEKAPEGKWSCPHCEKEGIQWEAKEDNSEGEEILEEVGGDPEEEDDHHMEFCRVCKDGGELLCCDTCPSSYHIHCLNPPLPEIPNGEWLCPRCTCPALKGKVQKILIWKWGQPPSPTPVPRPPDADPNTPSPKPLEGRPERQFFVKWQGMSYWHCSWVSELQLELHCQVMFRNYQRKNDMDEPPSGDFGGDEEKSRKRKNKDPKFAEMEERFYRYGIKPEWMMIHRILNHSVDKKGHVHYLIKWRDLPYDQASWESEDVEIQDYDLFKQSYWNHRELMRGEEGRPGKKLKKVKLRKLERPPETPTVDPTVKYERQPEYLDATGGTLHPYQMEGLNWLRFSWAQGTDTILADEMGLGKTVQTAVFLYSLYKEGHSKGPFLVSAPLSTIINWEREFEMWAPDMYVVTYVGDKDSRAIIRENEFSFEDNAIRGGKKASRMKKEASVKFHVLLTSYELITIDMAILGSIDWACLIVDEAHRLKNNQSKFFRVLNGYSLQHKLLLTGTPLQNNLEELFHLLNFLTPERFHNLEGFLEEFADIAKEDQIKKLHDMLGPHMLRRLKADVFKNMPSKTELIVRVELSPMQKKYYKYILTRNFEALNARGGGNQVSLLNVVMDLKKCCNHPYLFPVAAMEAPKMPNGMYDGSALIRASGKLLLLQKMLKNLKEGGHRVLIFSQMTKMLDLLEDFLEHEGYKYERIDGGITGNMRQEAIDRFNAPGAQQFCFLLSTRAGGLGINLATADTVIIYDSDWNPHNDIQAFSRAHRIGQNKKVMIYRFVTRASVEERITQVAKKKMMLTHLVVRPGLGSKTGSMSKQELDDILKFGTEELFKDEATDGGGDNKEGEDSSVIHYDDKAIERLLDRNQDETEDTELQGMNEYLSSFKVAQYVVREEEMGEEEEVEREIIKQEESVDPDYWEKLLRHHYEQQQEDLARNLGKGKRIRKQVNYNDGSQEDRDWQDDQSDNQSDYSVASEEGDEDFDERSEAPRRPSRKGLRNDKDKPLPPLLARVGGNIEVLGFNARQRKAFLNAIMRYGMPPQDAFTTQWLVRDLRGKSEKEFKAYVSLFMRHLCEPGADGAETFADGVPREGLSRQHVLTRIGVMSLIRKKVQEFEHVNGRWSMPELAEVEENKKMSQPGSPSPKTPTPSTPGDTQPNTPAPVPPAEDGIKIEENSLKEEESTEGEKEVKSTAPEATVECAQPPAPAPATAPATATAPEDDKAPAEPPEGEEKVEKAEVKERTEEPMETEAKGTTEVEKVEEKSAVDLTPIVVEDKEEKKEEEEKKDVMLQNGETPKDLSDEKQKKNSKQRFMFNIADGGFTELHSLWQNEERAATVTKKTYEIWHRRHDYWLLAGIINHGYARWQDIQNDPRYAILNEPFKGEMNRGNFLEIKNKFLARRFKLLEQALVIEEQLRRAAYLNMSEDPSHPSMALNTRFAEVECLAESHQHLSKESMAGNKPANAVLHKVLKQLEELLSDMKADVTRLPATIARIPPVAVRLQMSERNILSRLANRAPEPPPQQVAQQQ

The target in experiment [1] is GFP-tagged human TOP1 (GFP-TOP1) (human) (UniProt P11387). Nature of the experiment: affinity purification with mass spectrometry; DSP-IP: AID-activated P388/CPT45-GFP-TOP1 cells cross-linked with 0.6 mM DSP for 30 min; nuclear extract with Benzonase; GFP-Trap_A; washes up to 500 mM NaCl; 18O/16O labelling, LC-MS/MS; control: cells expressing GFP.
The target is the same in experiment [2]. Nature of the experiment: affinity purification with mass spectrometry; GFP-TOP1 IP with GFP-Trap_A from P388/CPT45 nuclear extract; the text does not tell whether by DSP-IP, native-IP or both (Supplementary Tables 1 and 2).
For experiment [3] the target is unchanged. Nature of the experiment: affinity purification with mass spectrometry; native-IP without cross-linking: nuclear extracts in HGN165 buffer (20 mM HEPES pH 7.4, 10% glycerol, 165 mM NaCl) with Benzonase; GFP-Trap_A; SDS-PAGE slices, LC-MS/MS; control: cells expressing GFP.

Results are given in words; binding and its absence hold for the method and conditions named. Binding seen in cells or lysates may run through a third protein. Here binding means that the protein was enriched with, or labelled near, the bait; the list need not be complete.

Regarding “ARID1A (endogenous, mouse) (from UniProt A2BH40 1-2283)”, the binding entry in experiment [1] is “binds”. For the molecule “PNKP (polynucleotide kinase phosphatase), endogenous, mouse (from UniProt Q9JLV6 1-522) (enzyme)”, the binding entry in experiment [2] is “binds”.

“SRSF1 (endogenous, mouse) (from UniProt Q6PDM2 1-248)”: the binding result in experiment [2] was “binds”. On the same count and under the same terms, then “ELAVL1 (endogenous, mouse) (from UniProt P70372 1-326)”, with “binds”. As for “SMARCA4 (endogenous, mouse) (from UniProt Q3TKT4 1-1613)”, the binding entry in experiment [3] and in experiment [1] was “binds” throughout. Regarding “NCL (endogenous, mouse) (from UniProt P09405 1-707)”, the binding entry in experiment [2] was “binds”.

Consider “TDP1 (tyrosyl-DNA phosphodiesterase 1), endogenous, mouse (from UniProt Q8BJ37 1-609) (enzyme)”, for which the binding result in experiment [2] was “binds”.

As for “XRCC1 (endogenous, mouse) (from UniProt Q60596 1-631)”, the binding entry in experiment [3] and in experiment [1] was “binds” in each case. With “SMARCC1 (endogenous, mouse) (from UniProt P97496 1-1104)”, the binding entry in experiment [1] is recorded as “binds”.

Turning to “PARP1 (endogenous, mouse) (from UniProt P11103 1-1013)”, the binding result in experiment [3] and in experiment [1] was “binds” in each case. With “CHD4 (endogenous, mouse) (from UniProt Q6PDQ2 1-1915)”, the binding entry in experiment [3] and in experiment [1] was “binds” in each case.

B1: LIGIII (endogenous, mouse) (enzyme, UniProt P97386 1-1015)
chain: MTLAFKILFPRNLCALGRKELCLFPEQNRWAAISQFSQWSETNLLGGCCLLQRRKPVLALQRGHLRPRATHLTFWPGSHVGLCTGPCAMAEQRFCVDYAKRGTAGCKKCKEKIVKGVCRIGKVVPNPFSESGGDMKEWYHIKCMFEKLERARATTKKIEDLTELEGWEELEDNEKEQISQHIADLSSKAAATPKKKAAVQAKLTTTGQVTSPVKGASFITSTNPRKFSGFSAAKPNNSEQAPSSPAPGTSLSASKCDPKHKDCLLREFRKLCAMVAENPSYNTKTQIIHDFLQKGSTGGFSDGFHGDVYLTVKLLLPGVIKSVYNLNDKQIVKLFSRIFNCNPDDMARDLEQGDVSETIRIFFEQSKSFPPAAKSLLTIQEVDAFLLHLSKLTKEDEQQQALQDIASRCTANDLKCIIRLIKHDLKMNSGAKHVLDALDPNAYEAFKASRNLQDVVERVLHNEQEVEKDPGRRRALRVQASLMTPVQPMLAEACKSIEYAMKKCPNGMFSEIKYDGERVQVHKKGDHFSYFSRSLKPVLPHKVAHFKDYIPKAFPGGQSMILDSEVLLIDNNTGKPLPFGTLGVHKKAAFQDANVCLFVFDCIYFNDVSLMDRPLCERRKFLHDNMVEIRNRIMFSEMKQVTKASDLADMINRVIREGLEGLVLKDVKGTYEPGKRHWLKVKKDYLNEGAMADTADLVVLGAFYGQGSKGGMMSIFLMGCYDPDSQKWCTVTKCAGGHDDATLARLQKELVMVKISKDPSKIPSWLKINKIYYPDFIVPDPKKAAVWEITGAEFSRSEAHTADGISIRFPRCTRIRDDKDWKSATNLPQLKELYQLSKDKADFAVVAGDEASPTTGGSSGENEGTAGSAGPCKGPPSKSSASAKTTEQKLNSPSSRGGIKPIPKHSPMKPGEKLAVKSSPVKVGMKRKATDETPCLKKVLLDVFTGVRLYLPPSTPDFKRLKRYFVAFDGDLVQEFDMGSATHVLGNREKNTDAQLVSSEWIWACIRKRRLIAPC
In the case of B1, in experiment [2], the binding result is reported as “binds”.

B2: FBL (endogenous, mouse) (protein, UniProt P35550 1-327)
chain: MKPGFSPRGGGFGGRGGFGDRGGRGGGRGGRGGFGGGRGGFGGGGRGRGGGGGGFRGRGGGGGRGGGFQSGGNRGRGGGRGGKRGNQSGKNVMVEPHRHEGVFICRGKEDALVTKNLVPGESVYGEKRVSISEGDDKIEYRAWNPFRSKLAAAILGGVDQIHIKPGAKVLYLGAASGTTVSHVSDIVGPDGLVYAVEFSHRSGRDLINLAKKRTNIIPVIEDARHPHKYRMLIAMVDVIFADVAQPDQTRIVALNAHTFLRNGGHFVISIKANCIDSTASAEAVFASEVKKMQQENMKPQEQLTLEPYERDHAVVVGVYRPPPKVKN
As to B2, the binding result in experiment [2] is on record as “binds”.

B3: NONO (endogenous, mouse) (protein, UniProt Q99K48 1-473)
chain: MQSNKAFNLEKQNHTPRKHHQHHHQQHHQQQQQQQQQQPPPPIPANGQQASSQNEGLTIDLKNFRKPGEKTFTQRSRLFVGNLPPDITEEEMRKLFEKYGKAGEVFIHKDKGFGFIRLETRTLAEIAKVELDNMPLRGKQLRVRFACHSASLTVRNLPQYVSNELLEEAFSVFGQVERAVVIVDDRGRPSGKGIVEFSGKPAARKALDRCSEGSFLLTTFPRPVTVEPMDQLDDEEGLPEKLVIKNQQFHKEREQPPRFAQPGSFEYEYAMRWKALIEMEKQQQDQVDRNIKEAREKLEMEMEAARHEHQVMLMRQDLMRRQEELRRMEELHNQEVQKRKQLELRQEEERRRREEEMRRQQEEMMRRQQEGFKGTFPDAREQEIRMGQMAMGGAMGINNRGAMPPAPVPPGTPAPPGPATMMPDGTLGLTPPTTERFGQAATMEGIGAIGGTPPAFNRPAPGAEFAPNKRRRY
B3: the binding entry in experiment [2] was “binds”.

B4: TCOF1 (endogenous, mouse) (protein, UniProt O08784 1-1320)
chain: MAEARKRRELLPLIYHHLLQAGYVRAAREVKEQSGQKSFLTQPVTLLDIYTHWQQTSELGQKQKAEDDETLQAKKSRVSDPVSSSESSDQEKEEEAATERAKATPRPTPVNSATAALPSKVKEKGKTKTANKTVNSVSHPGSGKTVVHLLSGKSPKKSAEPLANTVLASETEEEGNAQALGPTAKSGTVSAGQGSSSSEDSSISSDETDVEVKSPAKPAQAKASAAPAKDPPARTAPGPTKLGNVAPTPAKPARAAAAAAAAAVAAAAAAAAEESESSEEDSDSEDEAPAGLPSQVKASGKGPHVRADSVSAKGISGKGPILATPGKTGPAATQAKAERPEKDSETSSEDDSDSEDEMPVTVNTPQARTSGKSPRARGTSAPAKESSQKGAPAVTPGKARPVAAQAGKPEAKSSEESESDSGETPAAATLTTSPAKVKPLGKSSQVRPVSTVTPGSSGKGANLPCPGKVGSAALRVQMVKKEDVSESSSAELDSDGPGSPAKAKASLALPQKVRPVATQVKTDRGKGHSGSSEESSDSEEEAAPAASAAQAKPALEKQMKASSRKGTPASATGASTSSHCKAGAVTSSASLSSPALAKGTQRSDVDSSSESESEGAAPSTPRVQGKSGGKGLQGKAALGQGVAPVHTQKTGPSVKAMAQEDSESLEEDSSSEEEDETPAQATPLGRLPQAKANPPPTKTPPASASGKAVAAPTKGKPPVPNSTVSARGQRSVPAAGKAGAPATQAQKGPVAGTGEDSESSSKEESDSEEETPAQIKPVGKTSQVRAASAPAKESPKKGAHPGTPGKTGSSATQAQPGKTEDSDSSSEESDSDTEMPSAQAIKSPPVSVNRNSSPAVPAPTPEGVQAVNTTKKASGTTAQSSSSESEDGDEDLIPATQPSTYALRTSVTTPAALSRAASQPSKSEQSSRMPKGKKAKAAASAQTSSAVETLPMMPPQSAPIQPKATNKLGKSKLPEKQQLAPGYPKAPRSSEDSSDTSSEDEEDAKRPQMPKSAHRLDPDPSQKETVVEETPTESSEDEMVAPSQSLLSGYMTPGLTVANSQASKATPRPDSNSLASSAPATKDNPDGKQKSKSQHAADTALPKTGRKEASSGSTPQKPKKLKKSTSSSPAPTQTLPNSITQRLLEQAWPLSEAQVQASVVKVLTELLEQERLKATEAIKESGKKSQKRKLSGDLEAGAPKNKKKKEQPVPRASAVSPEKAPMTSKAKSKLDKGSAGGKGKGSPGPQGAKEKPDGELLGIKLESGEQSDPKSKSKKKKSLKKKKDKEKKEKKKGKKSLAKDSASPIQKKKKKKKKSAEPAV
For the molecule B4, the binding result in experiment [2] is recorded as “binds”.

B5: SFPQ (endogenous, mouse) (protein, UniProt Q8VIJ6 1-699)
chain: MSRDRFRSRGGGGGGFHRRGGGGGRGGLHDFRSPPPGMGLNQNRGPMGPGPGGPKPPLPPPPPHQQQQQPPPQQPPPQQPPPHQQPPPHQPPHQQPPPPPQESKPVVPQGPGSAPGVSSAPPPAVSAPPANPPTTGAPPGPGPTPTPPPAVPSTAPGPPPPSTPSSGVSTTPPQTGGPPPPPAGGAGPGPKPGPGPGGPKGGKMPGGPKPGGGPGMGAPGGHPKPPHRGGGEPRGGRQHHAPYHQQHHQGPPPGGPGPRTEEKISDSEGFKANLSLLRRPGEKTYTQRCRLFVGNLPADITEDEFKRLFAKYGEPGEVFINKGKGFGFIKLESRALAEIAKAELDDTPMRGRQLRVRFATHAAALSVRNLSPYVSNELLEEAFSQFGPIERAVVIVDDRGRSTGKGIVEFASKPAARKAFERCSEGVFLLTTTPRPVIVEPLEQLDDEDGLPEKLAQKNPMYQKERETPPRFAQHGTFEYEYSQRWKSLDEMEKQQREQVEKNMKDAKDKLESEMEDAYHEHQANLLRQDLMRRQEELRRMEELHSQEMQKRKEMQLRQEEERRRREEEMMIRQREMEEQMRRQREESYSRMGYMDPRERDMRMGGGGTMNMGDPYGSGGQKFPPLGGGGGIGYEANPGVPPATMSGSMMGSDMRTERFGQGGAGPVGGQGPRGMGPGTPAGYGRGREEYEGPNKKPRF
For the molecule B5, the binding result in experiment [2] is “binds”.

B6: BTBD1 (endogenous, mouse) (protein, UniProt P58544 1-488)
chain: MASLGSAAAGEPATGAEAEPGPPAPPPPPPPPPAPSPSALGPLLPLQREPLYNWQATKASLKERFAFLFNSELLSDVRFVLGKGRGAAAAGGPQRIPAHRFVLAAGSAVFDAMFNGGMATTSAEIELPDVEPAAFLALLRFLYSDEVQIGPETVMTTLYTAKKYAVPALEAHCVEFLTKHLRADNAFMLLTQARLFDEPQLASLCLDTIDKSTVDAISAEGFTDIDIDTLCAVLERDTLSIRESRLFGAIVRWAEAECQRQQLAVTFGNKQKVLGKALSLIRFPLMTIEEFAAGPAQSGILSDREVVNLFLHFTVNPKPRVEYIDRPRCCLRGKECCINRFQQVESRWGYSGTSDRIRFTVNRRISVVGFGLYGSIHGPTDYQVNIQIIEYEKKQTLGQNDTGFSCDGTANTFRVMFKEPIEILPNVCYTACATLKGPDSHYGTKGLKKVVHETPAASKTVFLFFSSPGNNNGTSIEDGQIPEIIFYT
In the case of B6, the binding result in experiment [2] is listed as “binds”.
